Results taken from PMC7038627.
These are yes or no findings as the source states them, for the method shown. Binding seen in cells or lysates may run through a third protein. Some binding calls cover weakened binding; strength is not graded here.

Protein sequences, listed by entry. Tags and fused reporters are not part of them.
UniProt P35222: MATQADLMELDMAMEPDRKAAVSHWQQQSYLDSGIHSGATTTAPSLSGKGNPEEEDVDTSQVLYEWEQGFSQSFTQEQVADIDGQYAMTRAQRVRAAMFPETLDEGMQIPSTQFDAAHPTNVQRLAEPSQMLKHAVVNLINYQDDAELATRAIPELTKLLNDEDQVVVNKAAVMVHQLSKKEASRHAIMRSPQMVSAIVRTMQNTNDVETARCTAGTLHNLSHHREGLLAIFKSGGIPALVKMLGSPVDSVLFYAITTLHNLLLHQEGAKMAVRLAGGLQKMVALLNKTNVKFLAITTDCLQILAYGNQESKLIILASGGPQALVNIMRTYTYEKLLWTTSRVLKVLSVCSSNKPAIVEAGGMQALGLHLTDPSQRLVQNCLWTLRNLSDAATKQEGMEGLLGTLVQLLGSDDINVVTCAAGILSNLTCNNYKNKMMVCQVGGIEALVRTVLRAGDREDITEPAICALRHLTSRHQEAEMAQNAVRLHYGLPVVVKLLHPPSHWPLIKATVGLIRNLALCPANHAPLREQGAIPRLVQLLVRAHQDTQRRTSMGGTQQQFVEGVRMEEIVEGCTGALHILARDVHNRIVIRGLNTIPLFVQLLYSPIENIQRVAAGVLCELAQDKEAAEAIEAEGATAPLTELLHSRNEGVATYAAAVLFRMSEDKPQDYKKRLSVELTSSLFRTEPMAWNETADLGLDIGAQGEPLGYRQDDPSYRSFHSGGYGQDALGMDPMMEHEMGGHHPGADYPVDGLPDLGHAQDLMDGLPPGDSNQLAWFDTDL

Legend:
[1] = target: β-catenin (human (endogenous in MDA-MB-231)) (UniProt P35222); assay: co-IP; RIPA lysate of MDA-MB-231/CLDN6 cells; specific primary antibody at 4 °C overnight, Protein A/G PLUS-Agarose beads, western blot
[2] = target: β-catenin (human (endogenous in MDA-MB-231)) (UniProt P35222); assay: proximity ligation; fixed MDA-MB-231/CLDN6 cells; anti-CLDN6 (rabbit) and anti-β-catenin (mouse) antibodies, Duolink PLA probes; signal only when the antigens are no more than 40 nm apart

binding [1]: binds
binding [2]: binds
B1: Claudin6 (protein, UniProt P56747 1-220)
chain: MASAGMQILGVVLTLLGWVNGLVSCALPMWKVTAFIGNSIVVAQVVWEGLWMSCVVQSTGQMQCKVYDSLLALPQDLQAARALCVIALLVALFGLLVYLAGAKCTTCVEEKDSKARLVLTSGIVFVISGVLTLIPVCWTAHAIIRDFYNPLVAEAQKRELGASLYLGWAASGLLLLGGGLLCCTCPSGGSQGPSHYMARYSTSAPAISRGPSEYPTKNYV
